## Percent effect of library compounds

Protein sequences, listed by entry. Tags and fused reporters are not part of them.
UniProt P9WPC5, whole entry: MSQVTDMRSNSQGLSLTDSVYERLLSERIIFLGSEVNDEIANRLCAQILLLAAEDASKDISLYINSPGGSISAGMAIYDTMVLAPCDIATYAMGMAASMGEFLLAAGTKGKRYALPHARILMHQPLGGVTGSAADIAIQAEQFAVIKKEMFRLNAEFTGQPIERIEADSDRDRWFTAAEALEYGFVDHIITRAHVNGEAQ
UniProt P9WPC3, whole entry partner: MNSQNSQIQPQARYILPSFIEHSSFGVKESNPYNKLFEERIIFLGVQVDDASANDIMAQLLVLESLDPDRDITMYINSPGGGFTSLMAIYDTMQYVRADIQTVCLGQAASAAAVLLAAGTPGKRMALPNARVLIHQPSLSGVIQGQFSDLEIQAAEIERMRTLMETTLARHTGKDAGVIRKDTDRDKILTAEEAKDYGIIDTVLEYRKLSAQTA
UniProt I6X8D2, whole entry: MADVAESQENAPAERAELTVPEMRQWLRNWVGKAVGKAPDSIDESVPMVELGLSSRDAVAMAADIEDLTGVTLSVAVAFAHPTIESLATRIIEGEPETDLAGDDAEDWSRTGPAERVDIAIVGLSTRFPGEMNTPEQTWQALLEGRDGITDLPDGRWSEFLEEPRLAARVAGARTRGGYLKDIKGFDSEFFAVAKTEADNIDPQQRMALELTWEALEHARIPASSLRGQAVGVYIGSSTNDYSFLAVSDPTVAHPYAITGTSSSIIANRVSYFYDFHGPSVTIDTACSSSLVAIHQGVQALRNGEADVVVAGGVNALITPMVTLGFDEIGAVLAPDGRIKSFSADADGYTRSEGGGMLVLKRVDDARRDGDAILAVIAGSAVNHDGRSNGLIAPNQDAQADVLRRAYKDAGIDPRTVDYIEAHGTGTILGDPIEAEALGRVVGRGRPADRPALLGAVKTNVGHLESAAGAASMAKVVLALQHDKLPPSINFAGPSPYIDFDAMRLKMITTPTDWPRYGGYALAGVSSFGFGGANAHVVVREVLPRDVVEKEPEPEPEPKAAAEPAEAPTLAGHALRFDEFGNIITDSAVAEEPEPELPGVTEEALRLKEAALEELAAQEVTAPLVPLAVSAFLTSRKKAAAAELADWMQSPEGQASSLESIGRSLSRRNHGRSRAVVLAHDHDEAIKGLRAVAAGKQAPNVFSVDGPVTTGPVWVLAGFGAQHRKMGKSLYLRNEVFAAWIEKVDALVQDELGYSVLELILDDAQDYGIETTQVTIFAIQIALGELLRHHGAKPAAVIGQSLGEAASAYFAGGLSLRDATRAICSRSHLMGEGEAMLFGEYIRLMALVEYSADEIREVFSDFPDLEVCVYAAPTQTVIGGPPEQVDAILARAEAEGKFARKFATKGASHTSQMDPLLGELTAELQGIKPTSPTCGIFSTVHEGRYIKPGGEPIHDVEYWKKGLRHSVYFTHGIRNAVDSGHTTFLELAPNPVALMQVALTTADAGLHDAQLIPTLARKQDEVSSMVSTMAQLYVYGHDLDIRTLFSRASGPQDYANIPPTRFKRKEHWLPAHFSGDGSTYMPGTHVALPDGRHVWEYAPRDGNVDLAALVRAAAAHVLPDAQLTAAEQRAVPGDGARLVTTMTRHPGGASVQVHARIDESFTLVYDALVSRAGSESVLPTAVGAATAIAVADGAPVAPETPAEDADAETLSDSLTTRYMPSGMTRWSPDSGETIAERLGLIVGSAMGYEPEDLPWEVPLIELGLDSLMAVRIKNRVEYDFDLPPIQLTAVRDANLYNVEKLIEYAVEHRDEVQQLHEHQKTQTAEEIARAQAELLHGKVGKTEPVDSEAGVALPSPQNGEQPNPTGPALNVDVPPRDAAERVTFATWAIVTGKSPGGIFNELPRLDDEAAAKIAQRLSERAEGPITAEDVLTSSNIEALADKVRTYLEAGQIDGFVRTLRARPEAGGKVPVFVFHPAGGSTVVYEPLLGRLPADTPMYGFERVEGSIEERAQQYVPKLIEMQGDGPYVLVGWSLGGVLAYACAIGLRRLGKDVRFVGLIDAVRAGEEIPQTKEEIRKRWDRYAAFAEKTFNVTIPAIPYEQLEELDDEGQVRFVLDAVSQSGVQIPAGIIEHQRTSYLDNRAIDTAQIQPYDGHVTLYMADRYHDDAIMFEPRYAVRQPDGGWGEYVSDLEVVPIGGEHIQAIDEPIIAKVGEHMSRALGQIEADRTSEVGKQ

Values are the deposited “Percent Effect”, in %. The controls that fix the scale are not given in the record; negative values are as filed. The compounds are a random part of those screened. Two or more numbers in one place are separate tests of the same structure; such repeats can differ widely.

Leishmania in macrophages: 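Cell assay of Leishmania donovani living inside macrophages; the read-out is not stated. Compounds at 30 µM. The record gives no direction; compounds that gave an IC50 in retests scored well above the rest, so higher reads as stronger inhibition. Size under these conditions: about 69,000 compounds, about 1,000 of them at 50% or above in at least one test.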
Toxoplasma: 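Assay of Toxoplasma gondii numbers, read through their beta-galactosidase reporter with a colour substrate. Tested at 10 µM. The record gives no direction; the compounds picked for IC50 retests had high values, so higher reads as fewer parasites. Size under these conditions: about 67,000 compounds, about 260 of them at 50% or above in at least one test.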
ClpP1P2: 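ClpP1P2, Mycobacterium tuberculosis (UniProt P9WPC5 and UniProt P9WPC3). Protease assay of ClpP1P2, read by the AMC dye that it sets free. Tested at 50 µM. Direction is inferred from only a few compounds that gave an IC50; most scored high, so higher reads as stronger inhibition. Most other retested compounds had strongly negative values. About 69,000 compounds were tested under these conditions; 0.015% (about 10) showed 50% or more at least once.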
T. brucei: 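Whole-parasite assay of Trypanosoma brucei over 72 hours; the read-out is not stated. Tested at 30 µM. Direction is inferred from retests: higher values go with stronger inhibition. Values scatter widely below zero; nearly all retest evidence comes from the higher of the two concentrations used. Of about 64,000 compounds tested this way, about 940 (1.5%) reached 50% or more in at least one test.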
Pks13 thioesterase: 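Polyketide synthase Pks13, Mycobacterium tuberculosis (UniProt I6X8D2). Enzyme assay of the thioesterase domain of polyketide synthase 13; the read-out is not stated. Tested at 30 µM. Higher reads as stronger inhibition (inferred from which compounds were picked for retests). Size under these conditions: about 67,000 compounds, about 300 of them at 50% or above in at least one test.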

With COc1ccc2c(c1)[nH]c1c(N(C)CC3OCCO3)ncnc12 the screen gave Leishmania in macrophages: -28.73%; Toxoplasma: 5.036%; ClpP1P2: -9.875%; T. brucei: 1.194%; Pks13 thioesterase: -14.87%. For CC(=O)N1CCCC(c2ccc3sc(N)nc3n2)C1 (stereo not shown) the result was Leishmania in macrophages: 22.92% and 19.32%; Toxoplasma: 3.658%; ClpP1P2: 12.85%; T. brucei: -5.684%; Pks13 thioesterase: -3.825%. CC(C)CN(C)Cc1nc2c(cnn2C)c(=O)[nH]1 read Leishmania in macrophages: 0.06134%; Toxoplasma: 5.477%; ClpP1P2: 1.132%; T. brucei: -12.44%; Pks13 thioesterase: -13.81%. Cc1nnc2n1CCN(C(C(=O)NC(C)C)c1ccccc1)C2 (stereo not shown) gave Leishmania in macrophages: -31.92%; Toxoplasma: 17.76%; ClpP1P2: -4.647%; T. brucei: -11.99%; Pks13 thioesterase: -23.14%. Result for CCN1CCC(CC(=O)N2CCc3sc(C(=O)N(C)C)cc3C2)CC1 was Leishmania in macrophages: -46.76%; Toxoplasma: -10.21%; ClpP1P2: -2.056%; T. brucei: -111.3%; Pks13 thioesterase: -2.675%. Result for Cc1noc([C@@H]2CCCN2C(=O)C2CCN(CC(N)=O)CC2)n1 was Leishmania in macrophages: 34.42%; Toxoplasma: -7.55%; ClpP1P2: -6.014%; T. brucei: 10.38%; Pks13 thioesterase: -13.45%.

Result for O=C(c1cc(-c2cn[nH]c2)nc2ccc(F)cc12)N1CCSCC1 was Leishmania in macrophages: 9.86%; Toxoplasma: 0.9831%; ClpP1P2: -10.29%; T. brucei: -8.545%; Pks13 thioesterase: 3.47%. With COc1ccc2c(c1)CCN(Cc1cscn1)CC2 the screen gave Leishmania in macrophages: 42.14%; Toxoplasma: 5.929%; ClpP1P2: -19.41%; T. brucei: -6.213%; Pks13 thioesterase: 11.64%. Result for Cc1cc(NC(=O)C(C)Oc2ccc3c(c2)OCO3)no1 (stereo not shown) was Leishmania in macrophages: 8.149%; Toxoplasma: 12.24%; ClpP1P2: -20.71%; Pks13 thioesterase: -41.53%. With [H][C@@]12CCN(C(=O)c3ccoc3C)C[C@@]1([H])O[C@H](c1nnc(C3CC3)o1)C2 the screen gave Leishmania in macrophages: 41.44%; Toxoplasma: -20.07%; T. brucei: -46.08%. [H][C@@]12CCN(C[C@@H]1CN1CCC(C)CC1)[C@@H](CNC(=O)c1ccco1)C2 gave Leishmania in macrophages: 12.38%; Toxoplasma: -8.795%; T. brucei: -13.78%. For Cc1nn2c(=O)/c(=C\c3cccs3)sc2nc1=O the result was Leishmania in macrophages: 2.238%; Toxoplasma: -30.91%; ClpP1P2: 6.858%; T. brucei: -12.52%; Pks13 thioesterase: 1.279%.

Cc1nnc(N2CCCC2)c(C(N)=O)c1C read Leishmania in macrophages: 16.48%; Toxoplasma: -6.019%; ClpP1P2: -19.91%; T. brucei: -2.737%; Pks13 thioesterase: -5.795%. For CCn1ccnc1CN1CCN(c2nccc(OC)n2)CC1C (stereo not shown) the result was Leishmania in macrophages: 5.617%; Toxoplasma: 11.65%; ClpP1P2: -10.15%; T. brucei: -61.79%; Pks13 thioesterase: 5.846%. With CN(C)CCNC(=O)c1sc2ccccc2c1C1CCC(CN)CC1 (stereo not shown) the screen gave ClpP1P2: -4.182%; Pks13 thioesterase: 0.7726%. Result for CN1C[C@H]2C[C@H](C(=O)Nc3cccnc3)[C@@H](C1)O2 was ClpP1P2: -5.712%; Pks13 thioesterase: -10.47%. With C=Cc1ccc(C(=O)NC2CCCc3nc(N(C)C)ncc32)cc1 (stereo not shown) the screen gave Leishmania in macrophages: 12.27%; Toxoplasma: 16.82%; ClpP1P2: -20.98%; T. brucei: -31.68%; Pks13 thioesterase: -16.95%. CCOC(=O)CCN(Cc1cccnc1)C(=O)c1cc(Cl)c[nH]1 read Leishmania in macrophages: 25.27%; Toxoplasma: 4.37%; ClpP1P2: -3.693%; T. brucei: -14.95%; Pks13 thioesterase: -3.244%.

Cc1ccc(C(=O)N2CCC3(CC2)COC(COc2cccnc2)C3)o1.O=C(O)C(F)(F)F (stereo not shown) gave Leishmania in macrophages: 59.81%; Toxoplasma: 1.011%; T. brucei: 51.84%. CN(Cc1nnc(C2CC2)o1)Cc1ccccc1N1CCOCC1 gave Leishmania in macrophages: 15.15%; Toxoplasma: -6.206%; ClpP1P2: -11.82%; T. brucei: -18.24%; Pks13 thioesterase: -4.69%. Result for Clc1ccc2cccnc2c1CNC1CCc2ncnn2C1 (stereo not shown) was Leishmania in macrophages: 10.19%; Toxoplasma: 0.8673%; ClpP1P2: -3.909%; T. brucei: -91.1%; Pks13 thioesterase: -30.5%. With CC(NC(=O)N1CCc2sccc2C1)c1nncn1C (stereo not shown) the screen gave Leishmania in macrophages: 1.849%; Toxoplasma: 16.13%; ClpP1P2: 4.829%; T. brucei: -46.62%; Pks13 thioesterase: -23.22%. CC(C)C[C@H](NC(=O)Nc1ccc(F)c(Cl)c1)C(=O)O gave Leishmania in macrophages: 6.449%; Toxoplasma: 18.12%; ClpP1P2: -0.1785%; T. brucei: -6.643%; Pks13 thioesterase: -28.79%. Result for CN(C)C(=O)c1nc2c(s1)CCN(C(=O)c1ccc(Cl)cc1)CC2 was Leishmania in macrophages: 7.664%; Toxoplasma: 2.244%; ClpP1P2: 3.372%; T. brucei: 22.37%; Pks13 thioesterase: -23.6%.

Cc1nc2sccn2c1C(=O)N1CCc2[nH]cnc2C1 gave Leishmania in macrophages: 25.8%; Toxoplasma: -1.491%; ClpP1P2: -3.18%; T. brucei: -11.36%; Pks13 thioesterase: 6.103%. O=C(O)C(F)(F)F.[H][C@@]12CN(Cc3ccc4c(c3)OCO4)C[C@H](C(=O)NC3CC3)[C@]1([H])CCO2 read Leishmania in macrophages: 29.26%; Toxoplasma: -13.39%.

Repeated from the top, 2 entries:

- COc1ccc2c(c1)[nH]c1c(N(C)CC3OCCO3)ncnc12 : Leishmania in macrophages: -28.73%; Toxoplasma: 5.036%; ClpP1P2: -9.875%; T. brucei: 1.194%; Pks13 thioesterase: -14.87%
- CC(=O)N1CCCC(c2ccc3sc(N)nc3n2)C1 (stereo not shown) : Leishmania in macrophages: 22.92% and 19.32%; Toxoplasma: 3.658%; ClpP1P2: 12.85%; T. brucei: -5.684%; Pks13 thioesterase: -3.825%

The values are deposited in ChEMBL (CHEMBL3988442, “University of Dundee, Small-Polar-MMV Screening Library” (2021)).